Laboratory results: PubChem BioAssay AID1224828 (NIAID, 2016)
Assay: 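Knock-downs that increase or decrease LPS-induced p65 nuclear translocation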 (primary screen). Cell system: mouse RAW264.7 G9 macrophage reporter cells (GFP-p65, Tnf promoter-mCherry). Knock-down reagent: siRNA pool against mouse genes, 100 nM. Timing: 2 days siRNA transfection, then 40 min LPS before fixation. Treatment: LPS (Salmonella minnesota R595) at 10 ng/ml. Read-out: 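Microscopy ratio of nuclear to perinuclear-ring GFP-p65 signal, scaled to the plate median; gene score is the average of two replicate robust z-scores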. Reading the numbers: p65 translocation robust z-score: higher = more nuclear NF-kappaB p65 after LPS than the plate median; nuclear/cytoplasmic p65 ratio: higher = more nuclear NF-kappaB p65. Active means: 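Active if robust z is above 3.3 (negative regulators) or below -1.56, the Tlr4 control median (positive regulators); activity score 50 or more; control wells not called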. Meaning of the calls: active = hit (p65 shift raised or lowered); inactive = no clear change.
In all, the deposit lists about 17,000 reagents; below is a part drawn at random. 762 of them (4.5%) count as active. 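Active calls include both raised and lowered p65 entry, mostly lowered; wells with fewer than 50 cells lack a z-score.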 Raw values vary from plate to plate and are shown uncorrected. The numbers tell different reagents against one gene apart.

| gene symbol | reagent | p65 translocation robust z-score | nuclear/cytoplasmic p65 ratio, rep 1 | nuclear/cytoplasmic p65 ratio, rep 2 | low cell count flag | Outcome |
| --- | --- | --- | --- | --- | --- | --- |
| Abl1 | 1 | 0.12 | 1.57 | 1.4 | enough cells to score | inactive |
| Ccser2 | 1 | – | 1.4 | 1.33 | fewer than 50 cells per well; well left out of scoring | inactive |
| Or51b17 | 1 | – | 1.37 | 1.51 | fewer than 50 cells per well; well left out of scoring | inactive |
| Xbp1 | 1 | 0.6 | 1.64 | 1.55 | enough cells to score | inactive |
| Aifm1 | 1 | 0.49 | 1.51 | 1.48 | enough cells to score | inactive |
| Jpt1 | 1 | -0.49 | 1.64 | 1.4 | enough cells to score | inactive |
| Rbm8a | 1 | 0.28 | 1.45 | 1.25 | enough cells to score | inactive |
| Parp4 | 1 | 0.56 | 1.58 | 1.43 | enough cells to score | inactive |
| Pyurf | 1 | -2.18 | 1.25 | 1.17 | enough cells to score | active |
| Slc25a39 | 1 | – | 1.04 | 1.34 | fewer than 50 cells per well; well left out of scoring | inactive |
| Hapln1 | 1 | 0.4 | 1.79 | 1.61 | enough cells to score | inactive |
| Tecta | 1 | 0.6 | 1.5 | 1.71 | enough cells to score | inactive |
| Dnaaf4 | 1 | -2.63 | 1.15 | 0.989 | enough cells to score | active |
| Rnf6 | 1 | -0.36 | 1.52 | 1.6 | enough cells to score | inactive |
| Cadm3 | 1 | – | 1.6 | 0 | fewer than 50 cells per well; well left out of scoring | inactive |
| Nags | 1 | -1.28 | 1.58 | 1.2 | enough cells to score | inactive |
| Or7c70 | 1 | 3.37 | 1.96 | 2 | enough cells to score | active |
| Prx | 1 | 0.21 | 1.51 | 1.45 | enough cells to score | inactive |
| Slc25a13 | 1 | 0.61 | 1.61 | 1.6 | enough cells to score | inactive |
| Hirip3 | 1 | -0.79 | 1.49 | 1.5 | enough cells to score | inactive |
| Trim25 | 1 | 1.28 | 1.57 | 1.3 | enough cells to score | inactive |
| Ascl1 | 1 | 0.36 | 1.7 | 1.64 | enough cells to score | inactive |
| Foxh1 | 1 | -0.41 | 1.31 | 1.39 | enough cells to score | inactive |
| Atp5pd | 1 | 0.05 | 1.63 | 1.62 | enough cells to score | inactive |
| Cdk2ap2 | 1 | -0.39 | 1.64 | 1.31 | enough cells to score | inactive |
| Cep19 | 1 | 0.49 | 1.37 | 1.55 | enough cells to score | inactive |
| Mast2 | 1 | 1.03 | 1.67 | 1.65 | enough cells to score | inactive |
| Ldlrad4 | 1 | -0.53 | 1.42 | 1.54 | enough cells to score | inactive |
| Dcph1 | 1 | – | 1.26 | 1.58 | fewer than 50 cells per well; well left out of scoring | inactive |
| Or6c211 | 1 | – | 1.3 | 1.35 | fewer than 50 cells per well; well left out of scoring | inactive |
| Zfp319 | 1 | -0.21 | 1.32 | 1.28 | enough cells to score | inactive |
| Hpd | 1 | 0.3 | 1.45 | 1.44 | enough cells to score | inactive |
| Sun2 | 1 | -0.93 | 1.24 | 1.56 | enough cells to score | inactive |
| Otof | 1 | – | 1.49 | 1.34 | fewer than 50 cells per well; well left out of scoring | inactive |
| Mettl13 | 1 | -1.24 | 1.22 | 1.28 | enough cells to score | inactive |
| 9330154K18Rik | 1 | 0.06 | 1.46 | 1.53 | enough cells to score | inactive |
| Prepl | 1 | 0.87 | 1.86 | 1.75 | enough cells to score | inactive |
| Rbm25 | 1 | -0.01 | 1.45 | 1.41 | enough cells to score | inactive |
| Rbm25 | 2 | 0.14 | 1.3 | 1.6 | enough cells to score | inactive |
| Trappc2b | 1 | – | 1.27 | 1.19 | fewer than 50 cells per well; well left out of scoring | inactive |
| Kctd2 | 1 | -1.12 | 1.36 | 1.31 | enough cells to score | inactive |
| Asb18 | 1 | 0.5 | 1.67 | 1.59 | enough cells to score | inactive |
| Thyn1 | 1 | – | 1.34 | 1.2 | fewer than 50 cells per well; well left out of scoring | inactive |
| Ppp1r13b | 1 | 0.81 | 1.5 | 1.62 | enough cells to score | inactive |
| P2ry2 | 1 | -1.59 | 1.2 | 1.44 | enough cells to score | active |
| Rab20 | 1 | -0.07 | 1.55 | 1.46 | enough cells to score | inactive |
| Agbl2 | 1 | 2.55 | 1.64 | 1.96 | enough cells to score | inactive |
| Or5ac25 | 1 | -1.69 | 1.39 | 1.21 | enough cells to score | active |
| Or5ac25 | 2 | 0.33 | 1.62 | 1.47 | enough cells to score | inactive |
| Pdcd7 | 1 | – | 1.34 | 1.23 | fewer than 50 cells per well; well left out of scoring | inactive |
| Tbc1d10a | 1 | – | 1.35 | 1.78 | fewer than 50 cells per well; well left out of scoring | inactive |
| Lce1d | 1 | 0.39 | 1.5 | 1.25 | enough cells to score | inactive |
| Ube2e1 | 1 | 0.7 | 1.63 | 1.58 | enough cells to score | inactive |
| Dpp7 | 1 | – | 1.37 | 1.33 | fewer than 50 cells per well; well left out of scoring | inactive |
| Or52m2 | 1 | 1.4 | 1.41 | 1.43 | enough cells to score | inactive |
| Npas4 | 1 | 1.16 | 1.6 | 1.57 | enough cells to score | inactive |
| Ktn1 | 1 | -1.06 | 1.36 | 1.21 | enough cells to score | inactive |
| Prkab1 | 1 | 0.86 | 1.55 | 1.52 | enough cells to score | inactive |
| Tbrg4 | 1 | -0.01 | 1.54 | 1.49 | enough cells to score | inactive |
